No constants are given. Whether binding was seen depends on the method and setting. Binding can be weak; no strength is given.
Columns and labels:
[1] = biological target: thrombin; experiment: complex formation with heparin, western blot (FIG. 6B legend)
[2] = biological target: thrombin; experiment: complex formation at different pH, western blot (FIG. 6A); complex somewhat decreased with increasing pH

binding [1]: binds
binding [2]: binds
B1: mouse prostasin-binding protein (mPBP) purified from mouse seminal vesicle fluid (protein, UniProt Q07235 20-397, looked up)
chain: SQFNSLSLEELGSNTGIQVFNQIIKSRPHENVVVSPHGIASILGMLQLGADGKTKKQLSTVMRYNVNGVGKVLKKINKAIVSKKNKDIVTVANAVFLRNGFKMEVPFAVRNKDVFQCEVQNVNFQDPASASESINFWVKNETRGMIDNLLSPNLIDGALTRLVLVNAVYFKGLWKSRFQPESTKKRTFVAGDGKSYQVPMLAQLSVFRSGSTRTPNGLWYNFIELPYHGESISMLIALPTESSTPLSAIIPHITTKTIDSWMNTMVPKRMQLVLPKFTAVAQTDLKEPLKALGITEMFEPSKANFTKITRSESLHVSHILQKAKIEVSEDGTKASAATTAILIARSSPPWFIVDRPFLFSIRHNPTGAILFLGQVNKP
